The list is a part of this screen's results and no random one: it is rich in T/C values a quarter to a half above the control, in often repeated tests (any T/C) and in doses without a T/C. Other doses and runs of a compound stand elsewhere. T/C gives the treated animals as a percentage of the vehicle group. Some entries give survivors of the animals treated and no T/C: the source files T/C as zero there, which appears to mark a toxic dose or a test without result, not a measured value. Some doses without a T/C left all or most animals alive at the check, yet need not have been tolerated: survival well below the control is almost never listed, so the zero probably covers shortened survival too. Counts of survivors are from the toxicity check (mostly the fifth day) where no day follows; animals may have died later. Schedules are NCI's codes, read here as Q, the interval in days (D) or hours (H), X, the number of doses. Some entries hold several experiments; the results are listed from low to high. Where survival is the endpoint, this PubChem deposit counts one and a half times the control or more as active, and values a quarter to a half above the control carry no call in these data; other NCI protocols may use other cut-offs. Additions like (4×) count equal records among those shown.

This assay concerns P388 leukemia ip, CD2F1 mice, survival T/C. Briefly: NCI In Vivo Anticancer Drug Screen. Data for tumor model P388 Leukemia (intraperitoneal) in CD2F1 (CDF1) mice. Conditions: T/C endpoint: median survival time, higher T/C = longer survival.
[1] abbreviates: dose: 50.0 mg/kg/injection, schedule: Q01DX009 (ip), vehicle: saline.
Where [2] appears, read: dose: 200.0 mg/kg/injection, schedule: Q01DX009 (ip), vehicle: saline.
The mark [3] stands for this setting: dose: 12.5 mg/kg/injection, schedule: Q01DX005 (ip), vehicle: saline with Tween-80.
The mark [4] stands for this setting: dose: 25.0 mg/kg/injection, schedule: Q01DX005 (ip), vehicle: saline with Tween-80.
[5] abbreviates: dose: 50.0 mg/kg/injection, schedule: Q01DX005 (ip), vehicle: saline with Tween-80.
Setting [6] is: dose: 100.0 mg/kg/injection, schedule: Q01DX005 (ip), vehicle: saline with Tween-80.
The mark [7] stands for this setting: dose: 200.0 mg/kg/injection, schedule: Q01DX005 (ip), vehicle: saline with Tween-80.
Where [8] appears, read: dose: 6.25 mg/kg/injection, schedule: Q01DX005 (ip), vehicle: saline with Tween-80.
The mark [9] stands for this setting: dose: 60.0 mg/kg/injection, schedule: Q01DX005 (ip), vehicle: saline with Tween-80.
The mark [10] stands for this setting: dose: 120.0 mg/kg/injection, schedule: Q01DX005 (ip), vehicle: saline with Tween-80.
The mark [11] stands for this setting: dose: 240.0 mg/kg/injection, schedule: Q01DX005 (ip), vehicle: saline with Tween-80.
[12] abbreviates: dose: 480.0 mg/kg/injection, schedule: Q01DX005 (ip), vehicle: saline with Tween-80.
[13] abbreviates: dose: 240.0 mg/kg/injection, schedule: Q01DX005 (ip), vehicle: Klucel (hydroxypropylcellulose) (HPC).
Setting [14] is: dose: 200.0 mg/kg/injection, schedule: Q01DX009 (ip), vehicle: saline with Tween-80.
Where [15] appears, read: dose: 50.0 mg/kg/injection, schedule: Q01DX005 (ip), vehicle: saline.
Setting [16] is: dose: 100.0 mg/kg/injection, schedule: Q01DX005 (ip), vehicle: saline.
Setting [17] is: dose: 200.0 mg/kg/injection, schedule: Q01DX005 (ip), vehicle: saline.
Setting [18] is: dose: 400.0 mg/kg/injection, schedule: Q04DX002 (ip), vehicle: saline with Tween-80.

As to `N#CC(C#N)=NO` (tested in a mixture with another compound), the survivor count runs as follows: under setting [1], 6 of 6; under setting [2], 4 of 6.
Consider `Cc1ccc(N=C2c3ccccc3-c3ccc(NC(=O)c4ccccc4)cc32)cc1`, for which the survivor count by setting is: under setting [3], 6 of 6; under setting [4], 6 of 6; under setting [5], 6 of 6; under setting [6], 5 of 5; under setting [7], 5 of 5.
In the case of `CN(C)c1ccc(C(=C2C=CC(=[N+](C)c3ccccc3)c3ccccc32)c2ccc(N(C)C)cc2)cc1`, the T/C by setting is: (dose: 3.12 mg/kg/injection, schedule: Q01DX005 (ip), vehicle: saline with Tween-80) 129 % of control; under setting [8], 125 % of control. The survivor count reads like this: under setting [8], 6 of 6; under setting [3], 0 of 6 and 4 of 5; under setting [4], 0 of 5; under setting [5], 0 of 5; under setting [6], 0 of 5; under setting [7], 0 of 5.
Turning to `C=C(C(N)=O)C(N)C(=O)O` (stereo unspecified), the T/C was 125 % of control under setting [9]; 131 and 134 % of control under setting [10]; 137 % of control under setting [11]. For the same compound, the survivor count runs as follows: under setting [11], 0 of 6; under setting [12], 0 of 6.
With `C1COCCOCCOCCOCCO1.[Cl][Sn]([Cl])([Cl])[Cl]`, under setting [13], the survivor count is reported as 2 of 6.
Turning to `O=C1C2=C(Nc3ccccc3N2)OC1c1ccccc1Cl` (stereo unspecified), the survivor count under setting [13] is reported as 6 of 6.
In the case of `CC1(C)N=C(N)N=C(N)N1c1ccc(CCC(=O)Nc2ccc(S(=O)(=O)F)cc2)c(Cl)c1`, the survivor count (dose: 300.0 mg/kg/injection, schedule: Q04DX003 (ip), vehicle: saline with Tween-80) is 5 of 6.
Take `Cc1csnn1`: the survivor count by setting is: under setting [9], 6 of 6; under setting [10], 1 of 6; under setting [11], 0 of 6.
For the compound `CCN(CC)CCOCCc1ccccc1`, the survivor count by setting is: under setting [6], 2 of 6; under setting [7], 0 of 6.
Regarding `CCS(=O)(=O)c1ccc(N2C(N)=NC(N)=NC2(C)C)cc1`, the survivor count under setting [5] was 3 of 5, the survivor count under setting [6] is on record as 0 of 5 and the survivor count under setting [7] is 0 of 5.
With `CC1CCC(C(C)C)C2(C1)OC(CCl)CS2` (stereo unspecified), the survivor count by setting is: (dose: 100.0 mg/kg/injection, schedule: Q01DX009 (ip), vehicle: saline with Tween-80) 4 of 6; under setting [14], 3 of 6.
As for `C/C(=N\NC(=S)N1CCN(c2ccccc2)CC1)c1cnccn1`, the survivor count reads like this: under setting [4], 6 of 6; under setting [5], 6 of 6; under setting [6], 1 of 6; under setting [7], 0 of 6.
In the case of `Cc1sc(C)c2c1C[Se]Cc1c(C)sc(C)c1C[Se]C2`, the survivor count runs as follows: (dose: 100.0 mg/kg/injection, schedule: Q01DX001 (ip), vehicle: saline with Tween-80) 6 of 6; (dose: 200.0 mg/kg/injection, schedule: Q01DX001 (ip), vehicle: saline with Tween-80) 6 of 6.
With `Nc1nnn(CCCl)n1`, under “dose: 400.0 mg/kg/injection, schedule: Q01DX001 (ip), vehicle: Klucel (hydroxypropylcellulose) (HPC)”, the survivor count is reported as 3 of 6.
Regarding `NNC(=O)c1cnn(-c2ccccc2)c1N`, the survivor count was 0 of 6 under setting [10] and 0 of 6 under setting [11].
Regarding `COc1cc(C(C)c2cc3c(cc2OC)OCO3)ccc1OCc1ccccc1` (stereo unspecified), the survivor count by setting is: (dose: 100.0 mg/kg/injection, schedule: Q01DX005 (ip), vehicle: distilled water + Tween-80) 6 of 6; (dose: 200.0 mg/kg/injection, schedule: Q01DX005 (ip), vehicle: distilled water + Tween-80) 6 of 6.
On to `Cc1ccc(SCC#CC#CCS(=O)c2ccc(C)cc2)cc1` (stereo unspecified), for which the survivor count under setting [7] is recorded as 4 of 6.
As for `C[Si](CNCCN)(c1ccccc1)c1ccccc1`, the survivor count under setting [10] is reported as 0 of 6 and the survivor count under setting [11] is 0 of 6.
As to `Cc1nn(-c2ccccc2)c2c1C(=O)CC(C)O2` (stereo unspecified), the survivor count under setting [13] is on record as 0 of 6.
With `Nc1nc(N)n(N)c(=S)n1`, the survivor count (dose: 200.0 mg/kg/injection, schedule: Q04DX003 (ip), vehicle: saline with Tween-80) is on record as 2 of 5.
As for `c1ccc(CSC2=NCCN2)cc1`, the survivor count is 3 of 6 (dose: 25.0 mg/kg/injection, schedule: Q01DX009 (ip), vehicle: saline); 3 of 6 under setting [1]; 0 of 6 (dose: 100.0 mg/kg/injection, schedule: Q01DX009 (ip), vehicle: saline); 0 of 6 under setting [2].
Turning to `O=S(=O)(O)c1ccc2c(N=Nc3ccccc3[As](=O)(O)O)c(O)c(S(=O)(=O)O)cc2c1`, the T/C was 136 % of control (dose: 132.0 mg/kg/injection, schedule: Q01DX009 (ip), vehicle: saline with Tween-80) and 131 % of control (2×) under setting [14]. The survivor count (dose: 300.0 mg/kg/injection, schedule: Q01DX009 (ip), vehicle: saline with Tween-80) was 4 of 6.
`c1ccc2c(Nc3ccc4c(c3)OCO4)c3c(nc2c1)CCCC3`: the survivor count by setting is: (dose: 100.0 mg/kg/injection, schedule: Q01DX005 (ip), vehicle: Klucel (hydroxypropylcellulose) (HPC)) 0 of 6; (dose: 200.0 mg/kg/injection, schedule: Q01DX005 (ip), vehicle: Klucel (hydroxypropylcellulose) (HPC)) 0 of 6.
In the case of `O=C1NC2(CCCC2)C(=O)N1CCCN(CCCl)CCCl`, for the setting “dose: 1.5 mg/kg/injection, schedule: Q01DX005 (ip), vehicle: saline”, the T/C is 141 % of control. In addition, the survivor count (dose: 24.0 mg/kg/injection, schedule: Q01DX005 (ip), vehicle: saline) is 4 of 6 and 6 of 6.
Turning to `OCCCCC12CCC(CCCCO)(CC1)CC2`, the survivor count (dose: 200.0 mg/kg/injection, schedule: Q04DX002 (ip), vehicle: Klucel (hydroxypropylcellulose) (HPC)) is given as 6 of 6.
On to `COc1ccc2oc3c(ccc[n+]3C)c(=O)c2c1`, for which the T/C runs as follows: (dose: 30.0 mg/kg/injection, schedule: Q01DX005 (ip), vehicle: saline with Tween-80) 132 % of control; under setting [9], 126 and 130 % of control; under setting [10], 133 and 134 % of control; under setting [11], 127, 130, 138 % of control. In addition, the survivor count under setting [12] was 3 of 6.
Turning to `CC(C)=C(Nc1ccccc1)NC(C)C`, the T/C under setting [15] was 128 % of control. Also, the survivor count is, setting by setting: under setting [15], 0 of 6; under setting [16], 0 of 5; under setting [17], 0 of 5.
In the case of `CN(C)CC(CN(C)C)C(=O)/C=C/c1ccccc1`, the survivor count runs as follows: (dose: 6.25 mg/kg/injection, schedule: Q01DX005 (ip), vehicle: saline) 4 of 6 and 5 of 6; (dose: 12.5 mg/kg/injection, schedule: Q01DX005 (ip), vehicle: saline) 0 of 6; (dose: 25.0 mg/kg/injection, schedule: Q01DX005 (ip), vehicle: saline) 0 of 6; under setting [15], 0 of 6; under setting [16], 0 of 6; under setting [17], 0 of 6.
`CCOC(=O)c1c[nH]n2ccnc12`: the survivor count under setting [18] is 0 of 6.
Regarding `O=C(O)CSC(CC(=O)O)C(F)(F)C(F)(F)C(F)(F)F` (stereo unspecified), where the note is “dose: 400.0 mg/kg/injection, schedule: Q04DX003 (ip), vehicle: saline”, the survivor count is 4 of 6.
As to `CCN(CC)C/C=C(/C)CCC=C(C)C`, the survivor count is, setting by setting: (dose: 100.0 mg/kg/injection, schedule: Q04DX002 (ip), vehicle: saline with Tween-80) 0 of 6; (dose: 200.0 mg/kg/injection, schedule: Q04DX002 (ip), vehicle: saline with Tween-80) 0 of 6; under setting [18], 0 of 6.

The values are drawn from PubChem BioAssay AID330 (DTP/NCI, 2004).
